Publication PMC2243017
No constants are given. Whether binding was seen depends on the method and setting. For some of these results: Binding seen in cells or lysates may run through a third protein. Some results given as binding are weak or reduced against the parent protein; the word gives no strength. For some of these results: Where a sequence is shown, tags or fusion partners need not be part of it.

Chains of the proteins cited; added tags and fusions are not shown. Lines headed by an entry give the natural chain unless they say otherwise; changes in a name come on top.
UniProt Q86Y07: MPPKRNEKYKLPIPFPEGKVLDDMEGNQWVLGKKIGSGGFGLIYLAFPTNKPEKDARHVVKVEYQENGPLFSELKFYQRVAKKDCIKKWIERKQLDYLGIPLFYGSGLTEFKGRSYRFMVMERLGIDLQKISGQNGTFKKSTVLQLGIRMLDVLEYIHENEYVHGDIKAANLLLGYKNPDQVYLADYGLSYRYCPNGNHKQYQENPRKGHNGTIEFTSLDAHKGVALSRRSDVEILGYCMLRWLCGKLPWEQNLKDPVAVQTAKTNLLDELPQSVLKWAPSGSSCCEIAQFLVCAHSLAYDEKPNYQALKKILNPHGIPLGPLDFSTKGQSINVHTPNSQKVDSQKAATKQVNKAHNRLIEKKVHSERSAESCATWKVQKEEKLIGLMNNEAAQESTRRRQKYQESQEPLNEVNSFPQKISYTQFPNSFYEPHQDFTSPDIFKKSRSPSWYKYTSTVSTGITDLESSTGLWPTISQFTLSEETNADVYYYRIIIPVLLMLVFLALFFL
UniProt P45983: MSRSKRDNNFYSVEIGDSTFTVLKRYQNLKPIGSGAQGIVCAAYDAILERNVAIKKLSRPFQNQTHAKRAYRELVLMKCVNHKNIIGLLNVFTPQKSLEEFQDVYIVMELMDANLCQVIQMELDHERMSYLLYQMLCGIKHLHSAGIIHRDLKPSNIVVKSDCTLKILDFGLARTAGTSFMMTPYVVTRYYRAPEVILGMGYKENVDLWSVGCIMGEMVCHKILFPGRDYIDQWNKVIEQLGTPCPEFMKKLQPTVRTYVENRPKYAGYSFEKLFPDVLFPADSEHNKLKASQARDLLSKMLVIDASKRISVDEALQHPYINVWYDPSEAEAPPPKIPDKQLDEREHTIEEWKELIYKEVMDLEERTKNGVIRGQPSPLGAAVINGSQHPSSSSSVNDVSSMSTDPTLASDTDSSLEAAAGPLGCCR

Legend:
[1] = target: T1, GST-JIP1 full-length fusion protein (UniProt Q9WVI9); experiment: SEC; extracts of Cos1 cells transfected with pGST-JIP1 alone or with pHA-TAK1, pFlag-TAB1, pFlag-MKK7, pFlag-JNK, without or with pCEFL-HA-VRK2A or pCEFL-HA-VRK2B, fractionated on Superose 12 10/300 GL (50 mM Tris-HCl pH 7.5, 1 mM EDTA, 100 mM KCl); fractions analysed by western blot
T1 sequence: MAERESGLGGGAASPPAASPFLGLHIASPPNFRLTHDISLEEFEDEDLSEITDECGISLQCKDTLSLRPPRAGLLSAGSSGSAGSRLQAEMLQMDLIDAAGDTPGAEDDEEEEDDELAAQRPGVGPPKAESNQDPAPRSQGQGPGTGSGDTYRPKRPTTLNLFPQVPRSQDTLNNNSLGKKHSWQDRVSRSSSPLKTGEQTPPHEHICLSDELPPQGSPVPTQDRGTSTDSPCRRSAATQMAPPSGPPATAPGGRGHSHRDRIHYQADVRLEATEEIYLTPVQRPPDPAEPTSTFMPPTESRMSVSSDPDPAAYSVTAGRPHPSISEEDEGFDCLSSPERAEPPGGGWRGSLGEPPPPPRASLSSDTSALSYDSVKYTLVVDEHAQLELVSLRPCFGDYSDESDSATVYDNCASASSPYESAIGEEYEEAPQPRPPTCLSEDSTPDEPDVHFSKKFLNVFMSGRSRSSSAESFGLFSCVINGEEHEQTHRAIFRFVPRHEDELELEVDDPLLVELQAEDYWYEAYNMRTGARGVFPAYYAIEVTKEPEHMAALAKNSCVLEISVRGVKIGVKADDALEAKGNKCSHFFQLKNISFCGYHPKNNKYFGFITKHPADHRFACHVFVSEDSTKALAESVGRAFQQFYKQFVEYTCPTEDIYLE

[2] = target: T1, GST-JIP1 full-length fusion protein; experiment: pull-down; lysates of transfected Cos1 cells (48 h; 20 mM Tris-HCl pH 7.4, 137 mM NaCl, 2 mM EDTA, 1% Triton-X100) mixed with glutathione-Sepharose beads 12 h at 4°C to bring down the GST fusion protein; associated transfected or endogenous proteins detected by western blot
[3] = target: GST-VRK2A (mammalian expression) (human) (UniProt Q86Y07); experiment: as above
[4] = target: T2, GST-JIP1 (283-660), bacterially expressed (UniProt Q9WVI9); experiment: pull-down; 2 µg purified bacterial GST-JIP1 fusion protein incubated at 4°C for 2 h with 35S-labeled in vitro translated VRK2A in 50 mM Tris pH 7.4, 250 mM NaCl, 0.1% Triton X-100, 5 mM EDTA, 2 mM DTT; only the target purified
T2 sequence: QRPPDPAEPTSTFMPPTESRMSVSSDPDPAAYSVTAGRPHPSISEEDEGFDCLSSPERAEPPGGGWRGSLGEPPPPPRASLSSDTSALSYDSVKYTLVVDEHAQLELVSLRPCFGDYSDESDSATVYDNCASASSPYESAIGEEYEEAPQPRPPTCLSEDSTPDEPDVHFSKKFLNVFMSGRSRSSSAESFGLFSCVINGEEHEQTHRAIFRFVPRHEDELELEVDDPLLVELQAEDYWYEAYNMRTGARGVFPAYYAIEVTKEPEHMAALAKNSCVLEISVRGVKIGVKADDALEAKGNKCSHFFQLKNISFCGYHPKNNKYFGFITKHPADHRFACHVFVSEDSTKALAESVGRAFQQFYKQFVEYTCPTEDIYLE

Row | binding [1] | binding [2] | binding [3] | binding [4] | Substance
1 | binds | binds | no binding |  | Flag-JNK (from UniProt P45983 1-427) (enzyme)
2 |  |  |  | binds | VRK2A transcribed-translated in vitro, 35S-labelled (from UniProt Q86Y07-1 1-508) (enzyme)
